Measurements taken from publication PMC5282575, “The crystal structure of the Sgt1-Skp1 complex: the link between Hsp90 and both SCF E3 ubiquitin ligases and kinetochores” (Scientific Reports, 2017).
Where a chain is given by its changes, count along the chain named. Results are given in words; binding and its absence hold for the method and conditions named. Where a sequence is shown, tags or fusion partners need not be part of it.

Sequences of proteins named here, by UniProt entry; tags and fusion partners are left off.
UniProt P52286: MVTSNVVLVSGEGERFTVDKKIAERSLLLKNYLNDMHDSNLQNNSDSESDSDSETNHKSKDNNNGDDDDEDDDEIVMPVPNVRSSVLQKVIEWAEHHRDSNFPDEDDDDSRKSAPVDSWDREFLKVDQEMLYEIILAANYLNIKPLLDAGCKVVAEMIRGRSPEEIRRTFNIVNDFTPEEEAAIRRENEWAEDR

Tests used:
[1] = biological target: T1, His6-tagged full-length Sgt1 R93A (S. cerevisiae) (UniProt Q08446); test: pull-down; His-Sgt1 (9 nmoles) held on Ni Sepharose resin blocked with BSA, 20 nmoles Skp1 added for 1 h; 25 mM HEPES pH 7, 100 mM NaCl; both purified
T1 sequence: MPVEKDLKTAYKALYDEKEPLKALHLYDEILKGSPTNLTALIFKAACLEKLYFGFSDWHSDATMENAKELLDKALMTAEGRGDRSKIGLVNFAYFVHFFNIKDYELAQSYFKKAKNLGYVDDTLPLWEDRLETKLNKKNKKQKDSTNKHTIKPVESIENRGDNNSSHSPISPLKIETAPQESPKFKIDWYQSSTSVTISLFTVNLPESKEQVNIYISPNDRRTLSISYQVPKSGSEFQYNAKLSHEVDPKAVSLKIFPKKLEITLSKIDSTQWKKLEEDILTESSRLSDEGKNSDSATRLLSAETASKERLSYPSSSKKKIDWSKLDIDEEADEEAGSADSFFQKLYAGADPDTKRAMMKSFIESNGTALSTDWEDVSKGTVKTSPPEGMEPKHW

[2] = biological target: T2, His6-tagged full-length Sgt1 W127A (S. cerevisiae) (UniProt Q08446); test: as above
T2 sequence: T1 sequence with A93R, W127A

“full-length Skp1 (untagged), Saccharomyces cerevisiae (from UniProt P52286 1-194)” was tested, and the binding [1] was “no binding (tested: 20 nmoles Skp1 on 9 nmoles His-Sgt1)” and the binding [2] was “no binding (tested: 20 nmoles Skp1 on 9 nmoles His-Sgt1)”.
